According to paper doi:10.1101/2023.09.15.557008:
No constants are given. Whether binding was seen depends on the method and setting. For some assays here: In cells and extracts the contact can be indirect. Some results given as binding are weak or reduced against the parent protein; the word gives no strength.

By UniProt entry, the sequences of proteins in these tests, tags left out. Where a name states a change or a piece, a line headed by the entry shows the natural chain unless it says otherwise. Residues count along the entry.
UniProt P80188, residues 21-198: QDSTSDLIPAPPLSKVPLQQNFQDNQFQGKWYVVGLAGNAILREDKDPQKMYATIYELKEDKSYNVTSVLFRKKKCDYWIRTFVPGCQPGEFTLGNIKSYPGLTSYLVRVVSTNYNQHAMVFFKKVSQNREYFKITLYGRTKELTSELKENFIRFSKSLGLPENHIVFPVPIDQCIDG
UniProt P03951: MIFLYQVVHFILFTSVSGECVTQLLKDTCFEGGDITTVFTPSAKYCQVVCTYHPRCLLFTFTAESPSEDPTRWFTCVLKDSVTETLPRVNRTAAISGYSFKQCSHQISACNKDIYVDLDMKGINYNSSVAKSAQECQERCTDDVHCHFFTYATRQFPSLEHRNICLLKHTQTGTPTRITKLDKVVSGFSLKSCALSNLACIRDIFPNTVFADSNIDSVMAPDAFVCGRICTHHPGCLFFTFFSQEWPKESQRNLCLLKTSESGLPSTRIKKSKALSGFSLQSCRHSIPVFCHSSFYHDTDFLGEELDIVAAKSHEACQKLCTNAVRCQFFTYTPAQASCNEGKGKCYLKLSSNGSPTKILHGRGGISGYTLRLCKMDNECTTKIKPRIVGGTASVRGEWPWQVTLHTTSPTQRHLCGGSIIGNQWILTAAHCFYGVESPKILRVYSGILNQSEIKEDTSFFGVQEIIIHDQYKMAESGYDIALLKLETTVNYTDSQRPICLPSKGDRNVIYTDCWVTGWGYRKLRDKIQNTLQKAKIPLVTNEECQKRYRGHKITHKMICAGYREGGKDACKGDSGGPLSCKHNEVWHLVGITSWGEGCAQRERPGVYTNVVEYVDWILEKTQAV
UniProt P01008, residues 33-464: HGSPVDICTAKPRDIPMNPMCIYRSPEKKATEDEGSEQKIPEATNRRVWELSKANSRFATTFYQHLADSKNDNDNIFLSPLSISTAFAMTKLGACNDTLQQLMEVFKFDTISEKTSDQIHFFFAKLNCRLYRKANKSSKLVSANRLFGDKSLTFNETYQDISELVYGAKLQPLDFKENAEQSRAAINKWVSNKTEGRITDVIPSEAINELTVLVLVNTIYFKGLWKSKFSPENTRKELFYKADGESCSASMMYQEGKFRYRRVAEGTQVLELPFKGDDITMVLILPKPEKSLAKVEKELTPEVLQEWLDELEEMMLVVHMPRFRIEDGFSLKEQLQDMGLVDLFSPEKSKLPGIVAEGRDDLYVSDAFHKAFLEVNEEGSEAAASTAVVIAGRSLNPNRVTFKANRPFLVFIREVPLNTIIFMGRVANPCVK
UniProt P08709: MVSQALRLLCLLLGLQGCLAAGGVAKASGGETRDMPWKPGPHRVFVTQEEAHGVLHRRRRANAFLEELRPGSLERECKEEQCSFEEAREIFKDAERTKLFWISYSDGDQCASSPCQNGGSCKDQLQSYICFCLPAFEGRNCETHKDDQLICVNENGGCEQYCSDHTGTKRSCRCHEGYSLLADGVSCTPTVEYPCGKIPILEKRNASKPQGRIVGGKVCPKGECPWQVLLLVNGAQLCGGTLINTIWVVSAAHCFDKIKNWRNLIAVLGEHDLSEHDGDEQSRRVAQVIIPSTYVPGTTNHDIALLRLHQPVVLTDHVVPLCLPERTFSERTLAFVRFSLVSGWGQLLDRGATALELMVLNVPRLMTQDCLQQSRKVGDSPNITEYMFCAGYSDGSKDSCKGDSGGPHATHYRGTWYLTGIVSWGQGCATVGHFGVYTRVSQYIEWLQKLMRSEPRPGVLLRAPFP
UniProt P03952: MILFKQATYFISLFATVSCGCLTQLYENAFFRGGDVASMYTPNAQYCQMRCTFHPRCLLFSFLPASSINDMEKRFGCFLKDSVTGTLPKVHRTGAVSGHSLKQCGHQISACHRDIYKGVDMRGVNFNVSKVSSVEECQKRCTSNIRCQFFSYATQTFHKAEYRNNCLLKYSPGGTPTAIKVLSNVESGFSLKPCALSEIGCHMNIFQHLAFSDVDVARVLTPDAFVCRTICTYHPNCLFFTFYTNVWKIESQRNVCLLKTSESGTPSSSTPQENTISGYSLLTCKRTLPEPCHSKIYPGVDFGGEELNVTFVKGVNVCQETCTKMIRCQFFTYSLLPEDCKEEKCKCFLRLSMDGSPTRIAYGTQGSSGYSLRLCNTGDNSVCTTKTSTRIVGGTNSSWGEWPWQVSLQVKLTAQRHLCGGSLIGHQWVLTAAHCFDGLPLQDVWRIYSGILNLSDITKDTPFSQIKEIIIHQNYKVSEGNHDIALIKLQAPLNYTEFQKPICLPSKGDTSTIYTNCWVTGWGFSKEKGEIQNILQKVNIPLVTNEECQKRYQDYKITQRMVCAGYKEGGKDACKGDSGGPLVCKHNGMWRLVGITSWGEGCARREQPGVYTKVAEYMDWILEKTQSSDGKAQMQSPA

Legend:
[1] = target: human neutrophil gelatinase-associated apolipoprotein (NGAL) (human) (UniProt P80188); assay: SPR
[2] = target: NGAL in normal plasma (human (endogenous in plasma)) (UniProt P80188); assay: co-IP

Substance	binding [1]	binding [2]
FXIa (from UniProt P03951 19-387; P03951 388-625) (enzyme)	binds	
antithrombin (from UniProt P01008 33-464)	binds	
antithrombin in normal plasma (from UniProt P01008 33-464)		binds
human FVIIa (from UniProt P08709 61-212; P08709 213-466) (enzyme)	binds	
human kallikrein (from UniProt P03952 20-390; P03952 391-638) (enzyme)	binds	
